PubChem BioAssay AID488837 (National Center for Advancing Translational Sciences (NCATS), 2010)
About 20 (0.006%) of roughly 330,000 compounds were called active. This list was built around the results that the source calls inconclusive (neither active nor inactive); the mix of calls is not that of the screen. Calls follow the shape of the dose curve; as a rule, active = well fitted inhibition curve with a large enough effect; inconclusive = small, poorly fitted or top-dose-only effect, or effect the other way; inactive = flat fitted curve, though single readings scatter. Potencies beside an inconclusive call are fits to weak or partial responses and may not hold up.

By UniProt entry, the sequences of proteins in these tests, tags left out. Where a name states a change or a piece, a line headed by the entry shows the natural chain unless it says otherwise.
UniProt O00167: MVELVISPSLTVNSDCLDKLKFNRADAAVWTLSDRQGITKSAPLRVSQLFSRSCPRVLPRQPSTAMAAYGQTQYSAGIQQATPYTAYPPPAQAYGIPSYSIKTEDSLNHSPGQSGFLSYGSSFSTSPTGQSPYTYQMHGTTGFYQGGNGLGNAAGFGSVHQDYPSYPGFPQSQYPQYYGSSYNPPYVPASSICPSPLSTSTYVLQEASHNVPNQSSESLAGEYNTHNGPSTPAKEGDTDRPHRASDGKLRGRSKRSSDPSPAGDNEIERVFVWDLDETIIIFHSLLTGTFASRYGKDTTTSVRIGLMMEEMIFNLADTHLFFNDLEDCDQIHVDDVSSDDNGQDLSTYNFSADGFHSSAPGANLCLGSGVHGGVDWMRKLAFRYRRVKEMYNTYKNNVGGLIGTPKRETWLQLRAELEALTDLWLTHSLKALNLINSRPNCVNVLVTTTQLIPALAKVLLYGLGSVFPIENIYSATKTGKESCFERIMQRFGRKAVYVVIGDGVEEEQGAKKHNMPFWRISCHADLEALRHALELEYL

The compounds below were run against Protein phosphatase EYA2 (Homo sapiens) (UniProt O00167) (assay: qHTS Assay for Inhibitors of the Phosphatase Activity of Eya2). Settings: recombinant Eya2, OMFP fluorescence dephosphorylation (OMFP is methylfluorescein phosphate); activity, negative = inhibition: at 76.9 µM (top of the series) unless noted.
Outline: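 Eya2 (0.2 uM) preincubated 10 min at ambient with compound, then OMFP substrate added at 50 uM; 10 min reaction in 50 mM HEPES pH 7.5, 50 mM NaCl, 5 uM MgCl2, 0.05% BSA, 1 mM DTT. Fluorescence read at Ex 485/Em 525 nm.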
% is scaled to controls: 0 for no effect and ±100 for the full control effect; potency is read from the fitted curve at half-maximal effect.

Row | Structure (SMILES) | Potency | activity, negative = inhibition
1 | CSc1nsc(SC)c1C(=O)Nc1ccc(C(C)(C)C)cc1 | inconclusive: 100 µM [inhibitor, single point] | 
2 | Cc1ccc(S(=O)(=O)N2CCOCC2)cc1NC(=O)CSc1nc(N)cc(=O)[nH]1 | inconclusive: 14.1 µM [inhibitor, single point] | 
3 | Cc1ccc(NC(=S)Nc2ccc3[nH]c(=O)[nH]c3c2)cc1C | inconclusive: 79.4 µM [inhibitor, single point] | 
4 | CCc1ccc(/C=C/C(=O)c2cc(Br)ccc(=O)c2O)cc1 |  | inactive: -1.7%
5 | CC(C)(C)n1cnc2cc(NCc3ccccc3O)ccc21 | inconclusive: 158 µM [inhibitor, single point] | 
6 | C=CCN1C(=O)c2ccc(C(=O)NCCOc3ccccc3F)cc2C1=O |  | inactive: -2.86%
7 | COc1cccc(OC)c1C(=O)Nc1ccc(Br)c(C(=O)c2ccccc2)c1 | inconclusive: 100 µM [inhibitor, single point] | 
8 | CCOC(=O)C1=C(C)N(C)C(=O)NC1c1c(O)ccc2ccccc12 (stereo not drawn) | inconclusive: 20 µM [inhibitor, single point] | 
9 | Cc1c(OC(C)C(=O)NCc2ccccn2)ccc2c3c(c(=O)oc12)CCCC3 (stereo not drawn) |  | inactive: 1.04%
10 | CCOc1ccccc1-n1c(SCC(=O)N2CCOCC2)nc2ccccc2c1=O | inconclusive: 15800 µM [inhibitor, partial curve, poor fit] | 
11 | Cc1nc2ccc(NC(=O)NC(=O)c3c(Cl)cccc3Cl)cc2o1 | inconclusive: 20 µM [inhibitor, single point] | 
12 | COc1ccc(OC2C(=O)N(Cc3ccc4c(c3)OCO4)C2c2cccs2)cc1 (stereo not drawn) | inconclusive: 89.1 µM [inhibitor, single point] | 
13 | COc1cc(/C=C2\SC(=Nc3ccc(O)cc3)NC2=O)cc(OC)c1OC |  | inactive: -6.14%
14 | Cc1onc(-c2ccccc2)c1C(=O)OCC(=O)Nc1ccc(Cl)cc1 | inconclusive: 251 µM [inhibitor, partial curve, poor fit] | 
15 | Nc1nc(Br)c2c(F)cccc2c1-c1ccccc1 | inconclusive: 316 µM [inhibitor, partial curve] | 
16 | Fc1cccc(CNc2ncnc3ccc(-c4ccccc4Cl)cc23)c1 |  | inactive: -25.2%
17 | CCn1nc(NC(=O)CC(C)C)c2cc3ccc(C)cc3nc21 | inconclusive: 100 µM [inhibitor, single point] | 
18 | CCc1sc(C(=O)NCCCn2ccnc2)cc1Br | inconclusive: 112 µM [inhibitor, single point] | 
19 | Cc1ccc(/C=N/NC(=O)c2ccc3c(c2)OCCO3)s1 |  | inactive: 8.33%
20 | Cc1ccc(N(CN2C(=O)C3C4CCC(C4)C3C2=O)C(=O)c2ccco2)cc1 (stereo not drawn) | inconclusive: 22.4 µM [inhibitor, single point] | 
21 | COc1ccc(C)cc1S(=O)(=O)N(CC(=O)O)c1ccc(C)cc1 | inconclusive: 20 µM [inhibitor, single point] | 
22 | O=S(=O)(c1ccccc1)C(/C=N\O)/C=C/c1ccccc1 (stereo not drawn) | inconclusive: 100 µM [inhibitor, single point] | 
23 | COC(=O)CSc1nc2c(cnn2-c2ccc(F)cc2)c(=O)[nH]1 |  | inactive: 0.0705%
24 | COc1ccc(C(=O)COC(=O)c2n[nH]c3ccccc23)c(OC)c1 |  | inactive: -18.6%
25 | O=C(C1CC1)N1CCN=C1SCc1ccccc1 |  | inactive: 1.17%

Row | Structure (SMILES) | Potency | activity, negative = inhibition
26 | O=C(NCC(c1cccs1)N1CCOCC1)c1ccco1 (stereo not drawn) | inconclusive: 20 µM [inhibitor, single point] | 
27 | CC(=O)CSc1ncnc2sc3c(c12)CCCC3 | inconclusive: 20 µM [inhibitor, single point] | 
28 | COc1ccc(Nc2cc(Sc3ccc(OC)cc3)ncn2)cc1 |  | inconclusive: 62.6% [activator]
29 | N/C(=N\OC(=O)N1CCOCC1)c1ccccc1 | inconclusive: 89.1 µM [inhibitor, single point] | 
30 | CCc1cc(N2CCOCC2)cc2c1[nH]c1ccccc12 |  | inactive: -12.8%
31 | CCCOc1ccc(C(=O)N/N=C/c2c[nH]c3ccc(Br)cc23)cc1 | inconclusive: 126 µM [inhibitor, single point] | 
32 | O=c1c2ccccc2nc2n1CC/C2=C/N1CCN(c2cccc(C(F)(F)F)c2)CC1 |  | inactive: 13.5%
33 | CC(C)=N/N=c1\scc(C)n1Cc1ccco1 | inconclusive: 20 µM [inhibitor, single point] | 
34 | C#CCOCCOCCOCCNc1nc(N2CCN(C(=O)CCCCCCCCCCNC(=O)[C@H]([C@@H](C)CC)n3cc(CCCCCN)nn3)CC2)nc(N2CCN(C(=O)CCCCCCCCCCNC(=O)[C@@H]([C@H](C)CC)n3cc(CCCCCN)nn3)CC2)n1 | active: 28.2 µM | 
35 | O=c1[nH]cnc(O)c1C(c1ccc(Br)cc1)c1c(O)nc[nH]c1=O | inconclusive: 200 µM [inhibitor, single point] | 
36 | COC(=O)Cc1c(O)ccn(Cc2ccc3c(c2)OCO3)c1=O |  | inactive: -11.4%
37 | Cn1c(O)c(N=NC(=O)CNC(=O)c2ccccc2)c2ccccc21 |  | inactive: 11.6%
38 | CCOC(=O)CCc1c(C)c2ccc(OC3CCCCC3=O)c(C)c2oc1=O (stereo not drawn) | inconclusive: 22.4 µM [inhibitor, single point] | 
39 | COc1cccc(/C=N/NC(=O)NC2CCCCC2)c1O |  | inactive: -5.17%
40 | COc1ccc(N2CCN(C(=O)c3ccc4c(c3)[nH]c(=S)n3c5ccccc5nc43)CC2)cc1 |  | inactive: 1.85%
41 | Oc1ccc(Br)cc1CNc1ccccn1 | inconclusive: 100 µM [inhibitor, single point] | 
42 | COc1ccc(-c2cc(C(F)F)nc(-n3nc(C)cc3C)n2)cc1 |  | inactive: -6.27%
43 | CCN(CC)c1ccc(C(=O)Nn2c(C)nc3ccccc3c2=O)cc1 | inconclusive: 20 µM [inhibitor, single point] | 
44 | COc1cc(/C=C/C(=O)Nc2cc(C(F)(F)F)ccc2Cl)cc(OC)c1OC | inconclusive: 178 µM [inhibitor, single point] | 
45 | CC(C)(O)C#Cc1ccc([C@@H]2C[C@H]3CN(c4ccccc4)C(=O)[C@]34CCCN24)s1 |  | inactive: -1.43%
46 | CC(C)CN1C(Nc2ccccc2)=NC[C@@H]1C | inconclusive: 28.2 µM [inhibitor, single point] | 
47 | O=C1C(CSCc2ccccc2)NC(=S)N1c1ccccc1 (stereo not drawn) | inconclusive: 100 µM [inhibitor, single point] | 
48 | Cc1ccc(/C(O)=C2\C(=O)C(=O)N(CC(C)O)C2c2cccc(F)c2)cc1 (stereo not drawn) |  | inactive: -38.6%
49 | CC(=O)Nc1ccc(NC(=O)Cn2cnc3c(nnn3Cc3ccc(F)cc3)c2=O)cc1 | inconclusive: 31.6 µM [inhibitor, partial curve] | 
50 | COc1ccc(/C=N/NC(=O)c2cccc(Br)c2)cc1COc1ccccn1 | inconclusive: 79.4 µM [inhibitor, single point] | 

Entries from the list above containing a furan ring, fused or not (three):
Row | Structure (SMILES) | Potency | activity, negative = inhibition
20 | Cc1ccc(N(CN2C(=O)C3C4CCC(C4)C3C2=O)C(=O)c2ccco2)cc1 (stereo not drawn) | inconclusive: 22.4 µM [inhibitor, single point] | 
26 | O=C(NCC(c1cccs1)N1CCOCC1)c1ccco1 (stereo not drawn) | inconclusive: 20 µM [inhibitor, single point] | 
33 | CC(C)=N/N=c1\scc(C)n1Cc1ccco1 | inconclusive: 20 µM [inhibitor, single point] | 

(cont.)

Row | Structure (SMILES) | Potency | activity, negative = inhibition
51 | CCN(CC)c1ccc(NC(=O)CCS(=O)(=O)c2cccc3nsnc23)c(C)c1 | inconclusive: 141 µM [inhibitor, single point] | 
52 | COc1ccc(NC(=O)NCc2cccn2C)c(OC)c1 | inconclusive: 178 µM [inhibitor, single point] | 
53 | COc1cc(CCC(=O)NCc2ccc(Cl)cc2)cc(OC)c1OC | inconclusive: 22.4 µM [inhibitor, single point] | 
54 | CN1C(=O)C2CN(CCc3ccccc3)CNC2N(C)C1=O (stereo not drawn) |  | inactive: 0.313%
55 | FCCCOc1ccc(/C=N/OCc2c(Cl)cccc2Cl)cc1 | inconclusive: 100 µM [inhibitor, single point] | 
56 | Cc1cc(-c2ccc(C)c(S(=O)(=O)NCCC(C)N3CCCCCC3)c2)on1 (stereo not drawn) | inconclusive: 25.1 µM [inhibitor, single point] | 
57 | Nc1ccc(N=Nc2ccccc2)c2ccccc12 | inconclusive: 282 µM [inhibitor, partial curve, poor fit] | 
58 | O=C(N/N=C/c1cccc([N+](=O)[O-])c1O)C(O)(c1ccccc1)c1ccccc1 |  | inactive: -21.1%
59 | FC(F)(F)c1cccc(-n2cccc2/C=N/n2cnnc2)c1 |  | inactive: 12.4%
60 | Cc1cc(C)cc(NC(=O)Cn2c(-c3ccccc3Cl)nc3ccccc32)c1 |  | inactive: 4.13%
61 | Cc1ccc(/C=C/C(=O)N2CCc3ccccc32)o1 |  | inactive: -2.78%
62 | Cc1ccc(OCc2nnc(N)s2)cc1C | inconclusive: 28.2 µM [inhibitor, partial curve] | 
63 | Cc1ccccc1C(=O)N1CCC(C(=O)NN2C(=O)NC3(CCCCC3)C2=O)CC1 | inconclusive: 224 µM [inhibitor, partial curve, poor fit] | 
64 | Cc1cc(Cl)ccc1Oc1ncc(-c2ccc(Cl)cc2)cn1 | inconclusive: 25.1 µM [inhibitor, single point] | 
65 | CN(C)/C=c1\sc2c(C#N)cc(C(=O)c3ccc(Br)cc3)n2c1=O |  | inactive: 11.4%
66 | COc1cc(C2C(C(=O)OCCC#N)=C(C)NC3=C2S(=O)(=O)c2ccccc23)cc(OC)c1OC (stereo not drawn) | inconclusive: 22.4 µM [inhibitor, single point] | 
67 | COc1ccc(NC(=O)c2ccc(C(=O)Nc3ccc(OC)cc3OC)cc2)c(OC)c1 |  | inactive: -2.19%
68 | Cc1ccc(C)c2[nH]c(=O)c(C(c3nnnn3C3CCCC3)N3CCOCC3)cc12 (stereo not drawn) |  | inactive: -5.09%
69 | CC1CCCCC12NC(=O)N(Cc1cc(=O)n3ccsc3n1)C2=O (stereo not drawn) | inconclusive: 28.2 µM [inhibitor, partial curve] | 
70 | O=C(O)c1ccc2c3n(nc2c1)-c1ccc(Cl)cc1CO3 |  | inactive: 6.86%
71 | COCCNc1nc(NCc2ccccc2)c2cnn(C)c2n1 | inconclusive: 100 µM [inhibitor, single point] | 
72 | CCOC(=O)c1cnc2c(C)c(Cl)ccc2c1N1CCN(CC)CC1 | inconclusive: 100 µM [inhibitor, single point] | 
73 | COc1ccc(CC2(CO)CCN(CC3=CC[C@H]4C[C@@H]3C4(C)C)CC2)cc1 | inconclusive: 100 µM [inhibitor, single point] | 
